Measured values taken from PMC12234153.
Results are given in words; binding and its absence hold for the method and conditions named. In cells and extracts the contact can be indirect. Some binding calls cover weakened binding; strength is not graded here. Where a sequence is shown, tags or fusion partners need not be part of it.

Target: T1, SMAD4-FLAG (human), Q13485
T1 chain: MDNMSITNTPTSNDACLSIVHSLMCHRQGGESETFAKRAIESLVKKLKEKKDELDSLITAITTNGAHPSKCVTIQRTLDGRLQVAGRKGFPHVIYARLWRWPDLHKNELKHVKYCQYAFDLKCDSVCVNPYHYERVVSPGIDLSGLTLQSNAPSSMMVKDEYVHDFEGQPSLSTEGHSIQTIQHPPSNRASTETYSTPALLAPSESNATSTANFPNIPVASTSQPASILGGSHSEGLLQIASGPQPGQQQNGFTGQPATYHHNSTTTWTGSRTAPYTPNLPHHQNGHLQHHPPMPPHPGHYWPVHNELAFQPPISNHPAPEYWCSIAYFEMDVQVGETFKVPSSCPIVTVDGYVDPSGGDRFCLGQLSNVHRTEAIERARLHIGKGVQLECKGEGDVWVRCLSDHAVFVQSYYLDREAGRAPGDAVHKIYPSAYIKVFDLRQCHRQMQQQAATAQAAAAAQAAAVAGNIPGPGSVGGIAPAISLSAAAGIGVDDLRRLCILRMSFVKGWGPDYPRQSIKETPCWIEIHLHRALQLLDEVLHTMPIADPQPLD
Assay: co-IP; DHHC7 KO HEK293T cells transfected with WT or catalytically inactive (MUT) DHHC7-HA and the indicated SMAD2-HA and SMAD4-FLAG constructs; which protein was precipitated not given
Settings: remark: other sources report otherwise

B1: SMAD2-HA (wild type), Q15796 1-467 (protein)
chain: MSSILPFTPPVVKRLLGWKKSAGGSGGAGGGEQNGQEEKWCEKAVKSLVKKLKKTGRLDELEKAITTQNCNTKCVTIPSTCSEIWGLSTPNTIDQWDTTGLYSFSEQTRSLDGRLQVSHRKGLPHVIYCRLWRWPDLHSHHELKAIENCEYAFNLKKDEVCVNPYHYQRVETPVLPPVLVPRHTEILTELPPLDDYTHSIPENTNFPAGIEPQSNYIPETPPPGYISEDGETSDQQLNQSMDTGSPAELSPTTLSPVNHSLDLQPVTYSEPAFWCSIAYYELNQRVGETFHASQPSLTVDGFTDPSNSERFCLGLLSNVNRNATVEMTRRHIGRGVRLYYIGGEVFAECLSDSAIFVQSPNCNQRYGWHPATVCKIPPGCNLKIFNNQEFAALLAQSVNQGFEAVYQLTRMCTIRMSFVKGWGAEYRRQTVTSTPCWIELHLNGPLQWLDKVLTQMGSPSVRCSSMS
binding: binds
